Among the data in doi:10.1101/542050 are binding values, retold here.

The chains behind the UniProt entries cited, without tags or fusion partners.
UniProt Q9H0U4: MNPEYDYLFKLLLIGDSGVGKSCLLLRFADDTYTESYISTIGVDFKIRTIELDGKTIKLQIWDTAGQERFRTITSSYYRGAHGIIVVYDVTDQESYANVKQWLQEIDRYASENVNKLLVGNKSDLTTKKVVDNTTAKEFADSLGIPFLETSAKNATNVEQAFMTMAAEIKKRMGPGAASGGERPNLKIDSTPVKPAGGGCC
UniProt Q7Z434: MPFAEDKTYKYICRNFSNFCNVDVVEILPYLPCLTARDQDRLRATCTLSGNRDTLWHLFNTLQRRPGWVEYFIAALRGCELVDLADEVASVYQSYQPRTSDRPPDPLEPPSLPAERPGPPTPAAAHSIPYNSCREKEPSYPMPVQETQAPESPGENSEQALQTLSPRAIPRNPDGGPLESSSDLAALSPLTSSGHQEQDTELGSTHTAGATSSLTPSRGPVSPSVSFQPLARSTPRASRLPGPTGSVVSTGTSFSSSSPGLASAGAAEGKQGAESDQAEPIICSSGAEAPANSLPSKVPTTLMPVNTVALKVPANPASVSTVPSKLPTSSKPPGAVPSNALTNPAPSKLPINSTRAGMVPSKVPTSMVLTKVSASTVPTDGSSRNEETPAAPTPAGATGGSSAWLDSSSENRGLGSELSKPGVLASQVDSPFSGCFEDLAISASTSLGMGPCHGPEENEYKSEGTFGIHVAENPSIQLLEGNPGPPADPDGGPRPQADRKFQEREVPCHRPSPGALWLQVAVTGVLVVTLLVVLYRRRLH

The target of the assay is HA-RAB1B (UniProt Q9H0U4). Nature of the assay: co-IP.

These are yes or no findings as the source states them, for the method shown. Binding seen in cells or lysates may run through a third protein. Some results given as binding are weak or reduced against the parent protein; the word gives no strength.

On to Flag-MAVS (from UniProt Q7Z434 1-540), for which the binding entry was “binds”.
